75 compounds from the supplement of paper PMC8166895 can be followed below.

Values joined by “and” are separate entries in the source; they are usually repeats but may differ in a detail not shown here. Equal entries are not always repeated. Structures can show the parent of a compound that is named as a salt. This is one part of the list. Most values lie at the level of the controls, where differences are scatter.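 Differential scanning fluorimetry gave melting temperatures in a one-replicate pilot screen of a library of approved drugs plus clinical or known-target compounds. Hits increasing melting point at least 2 °C were the strongest stabilizers, while negative shifts signify destabilization.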 Where a SMILES comes first, the peptide text is derived from it. [ ]: non-standard residue; d: D form. pGlu = O=C1CC[C@@H](C(=O)O)N1; Thz = O=C(O)[C@@H]1CSCN1

The subject of this assay is SARS-CoV-2 main protease (Mpro, nsp5). Description: thermal shift ΔTm of Mpro relative to plate average Tm; higher = stronger thermal stabilization of Mpro (binding). To be noted: 10 µM; protein concentration 1 µM.
As to `CCC1(c2ccccc2)C(=O)NCNC1=O` [Primidone], the “thermal shift ΔTm of Mpro” value was 0.176 °C. Turning to `CCCNC(=O)c1cn2ncnc(Nc3cc(C(=O)NC4CC4)ccc3C)c2c1C`, the “thermal shift ΔTm of Mpro” value was -0.102 °C. For the compound `COC(=O)C1=C(C)NC(C)=C(C(=O)OC(C)(C)CN(C)CCC(c2ccccc2)c2ccccc2)C1c1cccc([N+](=O)[O-])c1` (stereo not given) [Lercanidipine], the “thermal shift ΔTm of Mpro” value was determined as 0.298 °C. Regarding `O=C(Nc1cccnc1)c1cc(-c2ccnc(F)c2)ccc1OCc1ccccc1`, the “thermal shift ΔTm of Mpro” value was -0.259 °C. On to `COc1ccc(Cl)cc1NC(=O)Nc1cc(C)nc2ccccc12` [PQ401 hydrochloride], for which the “thermal shift ΔTm of Mpro” value came out at 0.254 °C. Regarding `COc1ccc(Cl)cc1NC(=O)Nc1cc(C)nc2ccccc12`, the “thermal shift ΔTm of Mpro” value is 0.328 °C.

For `CN(C)CCC(c1ccc(Br)cc1)c1ccccn1` (stereo not given) [Brompheniramine hydrogen maleate], the “thermal shift ΔTm of Mpro” value was -0.0979 °C. Turning to `COc1cc2ncnc(Nc3cccc(Br)c3)c2cc1OC`, the “thermal shift ΔTm of Mpro” value was 0.0694 °C and -0.00609 °C. As to `O=c1[nH]c2ccccc2n1CCN1CCN(c2cccc(C(F)(F)F)c2)CC1` [Flibanserin], the “thermal shift ΔTm of Mpro” value is -0.0381 °C. In the case of `COc1cc2ncnc(Nc3cccc(Cl)c3F)c2cc1OC(=O)N1CCN(C)C[C@H]1C` [AZD3759 hydrochloride] it was -0.0571 °C; in that of `Oc1c(Cl)cc(Cl)c2cccnc12` [Chloroxine], 0.0476 °C; in that of `c1ccc(-c2ccc(C(c3ccccc3)n3ccnc3)cc2)cc1` (stereo not given) [Bifonazole], -0.254 °C. `O=C1CC[C@@H](C(=O)N2CSC[C@H]2C(=O)O)N1` [Pidotimod] ([pGlu]-[Thz]-OH): the “thermal shift ΔTm of Mpro” value was found to be 0.0879 °C. As for `C=CC(=O)Nc1cccc(Sc2nc(Nc3ccc(N4CCN(C)CC4)cc3)ncc2Cl)c1`, the figure is 0.775 °C; as for `COc1ccc2[nH]c(SCc3ncc(C)c(OC)c3C)nc2c1` [Omeprazole sulfide], 0.34 °C. As for `CC(C)NCC(O)COc1ccc(CC(N)=O)cc1` (stereo not given) [Atenolol], the figure is -0.0652 °C; as for `CCCCNc1ncc(C(=O)NCc2ccc(-n3ccnc3)cc2)c(NC2CCC(O)CC2)n1` (stereo not given), -0.294 °C.

For `CCCCCCCCNc1cc(=O)[nH]c(=O)[nH]1`, the “thermal shift ΔTm of Mpro” value was 0.312 °C. `CCN1CCN(Cc2ccc(NC(=O)Nc3ccc(Oc4cc(NC)ncn4)cc3)cc2C(F)(F)F)CC1`: the “thermal shift ΔTm of Mpro” value turned out to be 0.115 °C. Turning to `Cc1noc(-c2ccc(-c3ccc(CC(=O)O)cc3)cc2)c1NC(=O)OC(C)c1ccccc1Cl` (stereo not given), the “thermal shift ΔTm of Mpro” value is -0.312 °C. Consider `C[C@H]1O[C@H](O[C@H]2[C@H](O)[C@@H](O)[C@@H](O[C@@H]([C@H](O)[C@@H](O)C=O)[C@H](O)CO)O[C@@H]2CO)[C@H](O)[C@@H](O)[C@@H]1N[C@H]1C=C(CO)[C@@H](O)[C@H](O)[C@H]1O` [Acarbose], for which the “thermal shift ΔTm of Mpro” value was found to be 0.175 °C. Consider `O=C([O-])c1ccccn1.O=C([O-])c1ccccn1.O=C([O-])c1ccccn1.[Cr+3]` [Chromium picolinate], for which the “thermal shift ΔTm of Mpro” value was 0.269 °C. As for `O=C(c1ccc2nonc2c1)N1CCCCC1` [Farampator], the figure is -0.0784 °C. For `Cn1c(CCCC(=O)O)nc2cc(N(CCCl)CCCl)ccc21` [Bendamustine HCl], the “thermal shift ΔTm of Mpro” value was determined as 0.123 °C. As for `CC(C)NC[C@@H](C(=O)N1CCN(c2ncnc3c2[C@H](C)C[C@H]3O)CC1)c1ccc(Cl)cc1`, the figure is -0.173 °C.

For the compound `CC(C)(C)c1cc(C(C)(C)C)c(NC(=O)c2c[nH]c3ccccc3c2=O)cc1O` [Ivacaftor (VX-770)], the “thermal shift ΔTm of Mpro” value was 0.482 °C. In the case of `Cc1ccc([C@@H]2O[C@H](CO)[C@@H](O)[C@H](O)[C@H]2O)cc1Cc1ccc(-c2ccc(F)cc2)s1` [Canagliflozin] it was 0.00301 °C; in that of `CCCc1cc(C)[nH]c(=O)c1CNC(=O)c1cc(-c2ccnc(N3CCN(C)CC3)c2)cc2c1cnn2C(C)C`, 0.0697 °C. As for `CC(=O)N(CC(O)CO)c1c(I)c(C(=O)NCC(O)CO)c(I)c(C(=O)NCC(O)CO)c1I` (stereo not given) [Iohexol], the “thermal shift ΔTm of Mpro” value was 0.0786 °C. For the compound `COC(=O)Nc1nc2cc(Sc3ccccc3)ccc2[nH]1` [Fenbendazole], the “thermal shift ΔTm of Mpro” value was found to be 0.0497 °C. Regarding `COc1cccc(C=NCCN=Cc2cccc(OC)c2[O-])c1[O-].[Cl-].[Mn+3]`, the “thermal shift ΔTm of Mpro” value was 0.0273 °C. In the case of `Cn1c(=O)c2c(ncn2CC2OCCO2)n(C)c1=O` [Doxofylline] it was -0.0886 °C.

On to `Oc1cc2c(cc1O)C(c1ccccc1)CNCC2` (stereo not given), for which the “thermal shift ΔTm of Mpro” value is -0.722 °C. For `COc1ccc(Oc2cc(C)c(-c3csc(NC(=O)c4ccncc4)n3)c(C)c2)cc1`, the “thermal shift ΔTm of Mpro” value is -0.426 °C. As for `O=C(O)C1=C(CSc2nnnn2CS(=O)(=O)O)CS[C@@H]2[C@H](NC(=O)[C@H](O)c3ccccc3)C(=O)N12` [Cefonicid sodium], the figure is 0.183 °C; as for `CCc1cc2c(cc1CC)CC(NC[C@H](O)c1ccc(O)c3[nH]c(=O)ccc13)C2` [Indacaterol Maleate], 0.221 °C. In the case of `CCc1cc2c(cc1CC)CC(NC[C@H](O)c1ccc(O)c3[nH]c(=O)ccc13)C2` [Indacaterol] it was -0.0119 °C.

On to `C=C[C@]1(C)C[C@@H](OC(=O)CSC(C)(C)CNC(=O)[C@H](N)C(C)C)[C@]2(C)[C@H](C)CC[C@]3(CCC(=O)[C@H]32)[C@@H](C)[C@@H]1O` [Valnemulin HCl], for which the “thermal shift ΔTm of Mpro” value is -0.217 °C. In the case of `CC(C=CC1(O)C(C)=CC(=O)CC1(C)C)=CC(=O)O` (stereo not given) [Abscisic Acid (Dormin)] it was -0.226 °C.

Regarding `Cc1sc2c(c1C)C(c1ccc(Cl)cc1)=N[C@@H](CC(N)=O)c1nnc(C)n1-2`, the “thermal shift ΔTm of Mpro” value is -0.239 °C. On to `CCN(CC)CCNC(=O)c1ccc(N)cc1` [Procainamide HCl], for which the “thermal shift ΔTm of Mpro” value came out at 0.0943 °C. In the case of `NC[C@H](O)c1ccc(O)c(O)c1` [Noradrenaline bitartrate monohydrate], the “thermal shift ΔTm of Mpro” value is -0.732 °C. For the compound `NC[C@H](O)c1ccc(O)c(O)c1` [Noradrenaline bitartrate], the “thermal shift ΔTm of Mpro” value came to 0.00908 °C. In the case of `O=C(O)c1ccnc(C(=O)O)c1` [lutidinic acid], the “thermal shift ΔTm of Mpro” value is -0.0393 °C.

Take `CCc1cnc(N2CCC(c3nc(COc4ccc(-n5cnnn5)cc4)cs3)CC2)nc1`: the “thermal shift ΔTm of Mpro” value is 0.04 °C. On to `N#Cc1c(N(CC(=O)O)CC(=O)O)sc(C(=O)O)c1CC(=O)O` [Strontium ranelate], for which the “thermal shift ΔTm of Mpro” value is 0.00082 °C. As for `CC[C@H]1OC(=O)[C@H](C)[C@@H](O[C@H]2C[C@@](C)(OC)[C@@H](O)[C@H](C)O2)[C@H](C)[C@@H](O[C@@H]2O[C@H](C)C[C@H](N(C)C)[C@H]2O)[C@](C)(O)C[C@@H](C)CN(C)[C@H](C)[C@@H](O)[C@]1(C)O` [Azithromycin], the “thermal shift ΔTm of Mpro” value is 0.0738 °C. On to `CC[C@H]1OC(=O)[C@H](C)[C@@H](O[C@H]2C[C@@](C)(OC)[C@@H](O)[C@H](C)O2)[C@H](C)[C@@H](O[C@@H]2O[C@H](C)C[C@H](N(C)C)[C@H]2O)[C@](C)(O)C[C@@H](C)CN(C)[C@H](C)[C@@H](O)[C@]1(C)O` [Azithromycin Dihydrate], for which the “thermal shift ΔTm of Mpro” value is -0.0718 °C. In the case of `CCOC(=O)C1=C(C)NC(=S)NC1c1cccc(O)c1` (stereo not given) [Monastrol] it was -0.0491 °C; in that of `CCn1c(N)c(C(=O)NC)c(=O)c2ccc(C#CC(C)(O)COC)nc21` (stereo not given), 0.038 °C; in that of `CN1CCc2nc(C(=O)N[C@@H]3C[C@@H](C(=O)N(C)C)CC[C@@H]3NC(=O)C(=O)Nc3ccc(Cl)cn3)sc2C1` [Edoxaban], 0.134 °C. Take `N[C@@H]1C[C@H]1c1ccccc1` [Tranylcypromine (2-PCPA) HCl]: the “thermal shift ΔTm of Mpro” value was -0.0942 °C.

As for `OCCn1cc(-c2ccc3c(c2)CC/C3=N\O)c(-c2ccncc2)n1`, the “thermal shift ΔTm of Mpro” value turned out to be 0.2 °C. As for `CN[C@H]1CC[C@@H](c2ccc(Cl)c(Cl)c2)c2ccccc21` [Sertraline HCl], the figure is 0.0373 °C. Turning to `COC(=O)N[C@H](C(=O)NNC[C@H](O)[C@H](Cc1ccccc1)NC(=O)[C@@H](NC(=O)OC)C(C)(C)C)C(C)(C)C` [Des(benzylpyridyl) Atazanavi], the “thermal shift ΔTm of Mpro” value was -0.00162 °C. With `O=C(O)c1cccc(-c2noc(-c3ccccc3F)n2)c1` [Ataluren (PTC124)], the “thermal shift ΔTm of Mpro” value is 0.0934 °C.

Turning to `Nc1ccc(S(=O)(=O)Nc2nccs2)cc1` [Sulfathiazole], the “thermal shift ΔTm of Mpro” value was -0.0335 °C.

As for `CCS(=O)(=O)CCSP(=O)(OC)OC` [Demeton-s-methyl sulfone], the “thermal shift ΔTm of Mpro” value was 0.00242 °C. As for `O=C1C(Cl)=C(N2CCOCC2)C(=O)N1c1ccc(Cl)c(Cl)c1`, the figure is 0.0792 °C; as for `CC(C)[N+]1(C)[C@@H]2CC[C@H]1C[C@@H](OC(=O)C(CO)c1ccccc1)C2` (stereo not given in full) [Ipratropium bromide monohydrate], 0.0335 °C; as for `CC(C)[N+]1(C)[C@@H]2CC[C@H]1C[C@@H](OC(=O)C(CO)c1ccccc1)C2` (stereo not given in full) [Ipratropium Bromide], -0.104 °C. As for `CC(C)(C)c1ccccc1Oc1ncccc1NC(=O)Nc1ccc(OC(F)(F)F)cc1`, the “thermal shift ΔTm of Mpro” value is 0.0951 °C. Take `Cc1ccc(-c2cc(C(F)(F)F)nn2-c2ccc(S(N)(=O)=O)cc2)cc1` [Celecoxib]: the “thermal shift ΔTm of Mpro” value was -0.173 °C.

For the compound `C[C@]12CC[C@@H]3c4ccc(O)cc4C[C@@H](CCCCCCCCC[S+]([O-])CCCC(F)(F)C(F)(F)F)[C@H]3[C@@H]1CC[C@@H]2O` (stereo not given in full) [Fulvestrant], the “thermal shift ΔTm of Mpro” value was -0.0432 °C.

Take `COc1c(/C=C/C(=O)c2ccc(O)cc2)ccc(O)c1CC=C(C)C`: the “thermal shift ΔTm of Mpro” value was -0.105 °C. Consider `CNC(=O)[C@@H](NC(=O)[C@H](CC(C)C)[C@H](O)C(=O)NO)C(C)(C)C` [Marimastat(BB-2516)], for which the “thermal shift ΔTm of Mpro” value was -0.103 °C. Consider `O=C(NCCCN1CCOCC1)c1ccc(Cl)cc1` [Eprobemide], for which the “thermal shift ΔTm of Mpro” value is 0.0113 °C. Take `Clc1ccc(C2(c3ccc(-c4cn[nH]c4)cc3)CCNCC2)cc1`: the “thermal shift ΔTm of Mpro” value is -0.182 °C. In the case of `C=C[C@](C)(O)CC[C@@H]1[C@@]2(C)CCCC(C)(C)[C@@H]2CC[C@@]1(C)O` [Sclareol] it was -0.15 °C; in that of `O=C(O)CC(C(=O)O)n1c(O)c(C2=c3cc(Br)ccc3=NC2=O)sc1=S` (stereo not given), -0.083 °C. In the case of `CC1(C)C(=O)N(c2ccc(C#N)c(C(F)(F)F)c2)C(=O)N1CCCCO`, the “thermal shift ΔTm of Mpro” value was 0.264 °C. In the case of `NC(=O)C1CCCc2c1[nH]c1ccc(Cl)cc21` (stereo not given) [EX 527 (Selisistat)], the “thermal shift ΔTm of Mpro” value is -0.188 °C. In the case of `CCS(=O)(=O)c1cccc(-c2cc(C(=O)NC3CCN(C)CC3)c(C)c3[nH]c4ncc(C)cc4c23)c1` it was -0.0879 °C. In the case of `COC(=O)[C@H](Cc1ccccc1)NC(=O)[C@@H](N)CC(=O)O` [Aspartame] (H-Asp-Phe-OMe), the “thermal shift ΔTm of Mpro” value was 0.0614 °C.

As to `Cc1ccc(S(=O)(=O)Nc2nc3ccccc3nc2Nc2ccc3nsnc3c2)cc1` [XL147 analogue], the “thermal shift ΔTm of Mpro” value worked out at 0.282 °C.
